ChEMBL document CHEMBL2429777, “Synthesis and antibacterial activity evaluation of 2,6-bis(6-substituted-1,2,4-triazolo[3,4-b][1,3,4]thiadiazol-3-yl)pyridine derivatives” (2013)

Experiments:
Format in all cases: functional
Pseudomonas aeruginosa = experiment: Antibacterial activity against Pseudomonas aeruginosa at 100 ug/tube after 24 hrs by cylinder-plate method
Escherichia coli = experiment: Antibacterial activity against Escherichia coli at 100 ug/tube after 24 hrs by cylinder-plate method
Staphylococcus aureus = experiment: Antibacterial activity against Staphylococcus aureus at 100 ug/tube after 24 hrs by cylinder-plate method

In the case of GENTAMICIN, the inhibition zone (IZ) (Pseudomonas aeruginosa) is reported as 21 mm, the inhibition zone (IZ) (Escherichia coli) is reported as 25 mm and the inhibition zone (IZ) (Staphylococcus aureus) is reported as 22 mm.
